PubChem BioAssay AID1159578 | Peter MacCallum Cancer Centre | 2015

- Aim: 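Genome-wide hunt for genes controlling movement of lymphatic endothelial cells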 (primary screen)
- Cell system: human lymphatic endothelial cells
- Reagent: siRNA pool against human genes, 40 nM
- Time to read-out: 48 h after transfection
- Measured: 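High-content imaging of dye-stained cells in a scratch assay measures filled wound area and nuclei per well; duplicate means given as ratio to mock and robust z-score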
- Scale: migration robust z-score: higher = faster migration into the scratch; nuclei per well: higher = more cells in the well
- Hit rule: 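Pools averaging fewer than 3300 nuclei are never called; remaining pools count as changed when migration robust z lies outside -2 to 2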
- Meaning of the calls: active = migration changed; inactive = no migration change, or too few cells
This is an unselected part of about 18,000 deposited reagents. About 1,030 of all reagents (5.7%) count as active. 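Inactive calls also include pools with fewer than 3300 nuclei, whose migration was not assessed.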 Raw values vary from plate to plate and are shown uncorrected. Unmarked entries are inactive. Not all columns of the deposit are shown.

The first 3 entries, ahead of the listing:
| gene | migration robust z-score | nuclei per well, duplicate mean |
| --- | --- | --- |
| FAF1 | 0.45 | 5903 |
| SLC5A7 | -0.29 | 5105 |
| LCT | 0.44 | 5690 |

The listing, from the start:
| gene | migration robust z-score | nuclei per well, duplicate mean |
| --- | --- | --- |
| FAF1 | 0.45 | 5903 |
| SLC5A7 | -0.29 | 5105 |
| LCT | 0.44 | 5690 |
| ASPNAT | -1.56 | 5924 |
| SPX | -2.04 (active) | 6053 |
| TLCD1 | -0.71 | 6996 |
| SBF2 | -1.31 | 5961 |
| MTUS2 | 1.32 | 5560 |
| ACOT2 | -0.26 | 4420 |
| QPRT | 0.49 | 5516 |
| LETM1 | 0.62 | 5368 |
| PLPPR4 | 0.64 | 5216 |
| UPK3B | -1.19 | 4648 |
| SMARCC2 | 0.39 | 5078 |
| UBTF | 0.18 | 6668 |
| ZSCAN9 | 0.39 | 5267 |
| MTBP | 0.26 | 5832 |
| PRAMEF8 | 0.86 | 5715 |
| CIMIP4 | 0.11 | 7123 |
| MFGE8 | -0.24 | 6734 |
| TIAM1 | -0.47 | 5887 |
| ZNF20 | 0.2 | 5910 |
| RNF141 | -0.6 | 5549 |
| CEP128 | 0.7 | 5580 |
| H4C15 | 2.21 (active) | 6634 |
| LPGAT1 | -0.6 | 6254 |
| PTPRJ | 1.01 | 5012 |
| NOL4 | 0.94 | 6146 |
| TPM4 | -0.86 | 5032 |
| PHF3 | 0.18 | 5348 |
| REG1B | 1.38 | 5386 |
| ZNF766 | -1.07 | 3245 |
| FKBP5 | -0.6 | 5546 |
| TBC1D3B | 0.53 | 7352 |
| TMEM87A | 0.43 | 6591 |
| ZNF614 | 0.56 | 5932 |
| MTCP1 | 0.89 | 7500 |
| TMC7 | -0.33 | 5836 |
| DNAJB8 | -0.34 | 5964 |
| MAL | -0.03 | 6638 |
| STEAP3 | 0.39 | 6631 |
| CDK20 | -2.96 (active) | 4576 |
| SNX17 | 0.74 | 6241 |
| PRKACA | -0.62 | 6418 |
| MOSPD2 | 1.84 | 5725 |
| CATSPERD | 0.02 | 5564 |
| LMAN1 | -0.58 | 4376 |
| SAMD15 | 0.74 | 5464 |
| GNGT2 | -0.81 | 7320 |
| ISLR2 | -0.27 | 6456 |
| SESN1 | 0.4 | 6032 |
| TOMM7 | 0.4 | 7495 |
| PFN1 | 1.51 | 6478 |
| MAOB | 0.1 | 5428 |
| OR2A12 | -1.51 | 5310 |
| RBM43 | -0.96 | 5529 |
| HMBOX1 | 0.82 | 6280 |
